Results taken from PMC9484696.
Results are given in words; binding and its absence hold for the method and conditions named. In cells and extracts the contact can be indirect. Here binding means that the protein was enriched with, or labelled near, the bait; the list need not be complete. For some assays here: Sequences can lack the tags named with a protein.

Protein sequences, listed by entry. Tags and fused reporters are not part of them. Residues count along the entry.
UniProt P42081, residues 24-247: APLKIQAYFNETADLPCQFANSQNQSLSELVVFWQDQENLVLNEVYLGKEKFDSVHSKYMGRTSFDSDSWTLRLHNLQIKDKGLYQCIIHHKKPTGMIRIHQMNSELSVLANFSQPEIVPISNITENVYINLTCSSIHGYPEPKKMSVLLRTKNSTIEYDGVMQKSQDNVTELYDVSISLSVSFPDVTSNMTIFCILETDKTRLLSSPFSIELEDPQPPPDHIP
UniProt O01949, residues 20-273: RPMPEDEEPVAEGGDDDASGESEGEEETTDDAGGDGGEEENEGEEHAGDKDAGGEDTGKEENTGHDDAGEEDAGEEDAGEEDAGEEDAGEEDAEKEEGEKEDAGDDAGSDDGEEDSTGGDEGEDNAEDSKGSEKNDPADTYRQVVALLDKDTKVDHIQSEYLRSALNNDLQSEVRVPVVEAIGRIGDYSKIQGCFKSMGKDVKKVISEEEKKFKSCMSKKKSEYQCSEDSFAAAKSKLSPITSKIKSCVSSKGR

How the values were obtained:
[1] = biological target: T1, human CD14 receptor bait protein with Fc-tag (human) (UniProt P08571); assay: affinity purification with mass spectrometry; Fc-tagged receptor baits on protein A beads (TLR4 with 6XHis on nickel beads) incubated with precleared Ae. aegypti salivary gland extract at 4°C for 1 h, washed with PBS; in a second set-up the extract met the receptor first and then the beads; bands cut from SDS-PAGE and identified by mass spectrometry; only the target purified
T1 sequence: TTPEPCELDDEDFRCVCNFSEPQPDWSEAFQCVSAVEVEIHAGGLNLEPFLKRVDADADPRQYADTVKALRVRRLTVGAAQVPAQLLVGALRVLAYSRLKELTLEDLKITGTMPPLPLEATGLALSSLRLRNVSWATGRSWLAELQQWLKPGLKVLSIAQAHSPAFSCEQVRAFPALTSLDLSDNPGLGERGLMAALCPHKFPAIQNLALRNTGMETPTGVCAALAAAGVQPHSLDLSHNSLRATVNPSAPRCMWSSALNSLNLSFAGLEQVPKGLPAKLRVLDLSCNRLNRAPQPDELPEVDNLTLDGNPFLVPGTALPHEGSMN

[2] = biological target: human CD86 receptor bait protein with Fc-tag (human) (UniProt P42081); assay: as above

Aegyptin (AAEL010235), from salivary gland extract (from UniProt O01949 20-273)
binding [1]: binds
binding [2]: binds
